Results are given in words; binding and its absence hold for the method and conditions named. For part of these data: In cells and extracts the contact can be indirect. Some binding calls cover weakened binding; strength is not graded here.
Legend:
[1] = target: T1, Zinc Finger MYND (Myeloid, Nervy, and DEAF-1) type containing 8 (human (in lysate of the paper's cell lines, all human; line not stated)) (UniProt Q9ULU4); assay: co-IP; cells cross-linked with 1% formaldehyde, neutralised with 125 mM glycine, lysed in RIPA buffer and sonicated; immunoprecipitation with the respective antibodies overnight, Dynabeads, western blot; in the presence of ATRA (CHD4, HDAC1)
T1 sequence: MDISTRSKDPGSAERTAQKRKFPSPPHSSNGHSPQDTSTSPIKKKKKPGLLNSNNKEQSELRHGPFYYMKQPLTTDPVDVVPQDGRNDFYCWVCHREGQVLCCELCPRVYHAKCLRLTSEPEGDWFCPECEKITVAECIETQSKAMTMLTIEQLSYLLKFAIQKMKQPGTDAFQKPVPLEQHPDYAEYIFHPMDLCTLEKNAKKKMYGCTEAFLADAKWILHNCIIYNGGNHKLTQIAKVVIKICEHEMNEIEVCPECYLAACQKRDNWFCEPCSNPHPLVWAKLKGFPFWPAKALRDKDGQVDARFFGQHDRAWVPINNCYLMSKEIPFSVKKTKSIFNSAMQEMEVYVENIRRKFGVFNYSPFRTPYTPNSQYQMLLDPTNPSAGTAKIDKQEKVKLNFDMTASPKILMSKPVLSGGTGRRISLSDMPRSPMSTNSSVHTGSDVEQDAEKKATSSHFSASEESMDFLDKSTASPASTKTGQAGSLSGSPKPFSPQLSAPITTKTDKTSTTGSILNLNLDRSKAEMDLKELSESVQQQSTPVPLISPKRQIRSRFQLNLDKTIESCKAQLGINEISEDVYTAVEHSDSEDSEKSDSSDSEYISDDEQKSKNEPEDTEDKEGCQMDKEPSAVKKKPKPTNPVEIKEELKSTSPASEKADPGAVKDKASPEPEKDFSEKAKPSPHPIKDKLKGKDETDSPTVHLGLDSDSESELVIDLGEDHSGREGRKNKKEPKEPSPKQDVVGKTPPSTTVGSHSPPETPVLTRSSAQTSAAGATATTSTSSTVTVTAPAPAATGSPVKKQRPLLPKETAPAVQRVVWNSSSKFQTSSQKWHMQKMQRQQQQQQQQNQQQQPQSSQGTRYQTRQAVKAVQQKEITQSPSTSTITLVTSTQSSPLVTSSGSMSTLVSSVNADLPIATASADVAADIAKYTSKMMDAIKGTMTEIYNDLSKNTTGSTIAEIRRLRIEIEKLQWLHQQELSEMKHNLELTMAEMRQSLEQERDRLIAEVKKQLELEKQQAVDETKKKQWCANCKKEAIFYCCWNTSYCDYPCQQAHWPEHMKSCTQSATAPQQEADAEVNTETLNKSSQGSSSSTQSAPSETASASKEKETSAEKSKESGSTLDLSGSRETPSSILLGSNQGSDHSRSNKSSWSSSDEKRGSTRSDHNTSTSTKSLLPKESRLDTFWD

The chains behind the UniProt entries cited, without tags or fusion partners.
UniProt Q14839: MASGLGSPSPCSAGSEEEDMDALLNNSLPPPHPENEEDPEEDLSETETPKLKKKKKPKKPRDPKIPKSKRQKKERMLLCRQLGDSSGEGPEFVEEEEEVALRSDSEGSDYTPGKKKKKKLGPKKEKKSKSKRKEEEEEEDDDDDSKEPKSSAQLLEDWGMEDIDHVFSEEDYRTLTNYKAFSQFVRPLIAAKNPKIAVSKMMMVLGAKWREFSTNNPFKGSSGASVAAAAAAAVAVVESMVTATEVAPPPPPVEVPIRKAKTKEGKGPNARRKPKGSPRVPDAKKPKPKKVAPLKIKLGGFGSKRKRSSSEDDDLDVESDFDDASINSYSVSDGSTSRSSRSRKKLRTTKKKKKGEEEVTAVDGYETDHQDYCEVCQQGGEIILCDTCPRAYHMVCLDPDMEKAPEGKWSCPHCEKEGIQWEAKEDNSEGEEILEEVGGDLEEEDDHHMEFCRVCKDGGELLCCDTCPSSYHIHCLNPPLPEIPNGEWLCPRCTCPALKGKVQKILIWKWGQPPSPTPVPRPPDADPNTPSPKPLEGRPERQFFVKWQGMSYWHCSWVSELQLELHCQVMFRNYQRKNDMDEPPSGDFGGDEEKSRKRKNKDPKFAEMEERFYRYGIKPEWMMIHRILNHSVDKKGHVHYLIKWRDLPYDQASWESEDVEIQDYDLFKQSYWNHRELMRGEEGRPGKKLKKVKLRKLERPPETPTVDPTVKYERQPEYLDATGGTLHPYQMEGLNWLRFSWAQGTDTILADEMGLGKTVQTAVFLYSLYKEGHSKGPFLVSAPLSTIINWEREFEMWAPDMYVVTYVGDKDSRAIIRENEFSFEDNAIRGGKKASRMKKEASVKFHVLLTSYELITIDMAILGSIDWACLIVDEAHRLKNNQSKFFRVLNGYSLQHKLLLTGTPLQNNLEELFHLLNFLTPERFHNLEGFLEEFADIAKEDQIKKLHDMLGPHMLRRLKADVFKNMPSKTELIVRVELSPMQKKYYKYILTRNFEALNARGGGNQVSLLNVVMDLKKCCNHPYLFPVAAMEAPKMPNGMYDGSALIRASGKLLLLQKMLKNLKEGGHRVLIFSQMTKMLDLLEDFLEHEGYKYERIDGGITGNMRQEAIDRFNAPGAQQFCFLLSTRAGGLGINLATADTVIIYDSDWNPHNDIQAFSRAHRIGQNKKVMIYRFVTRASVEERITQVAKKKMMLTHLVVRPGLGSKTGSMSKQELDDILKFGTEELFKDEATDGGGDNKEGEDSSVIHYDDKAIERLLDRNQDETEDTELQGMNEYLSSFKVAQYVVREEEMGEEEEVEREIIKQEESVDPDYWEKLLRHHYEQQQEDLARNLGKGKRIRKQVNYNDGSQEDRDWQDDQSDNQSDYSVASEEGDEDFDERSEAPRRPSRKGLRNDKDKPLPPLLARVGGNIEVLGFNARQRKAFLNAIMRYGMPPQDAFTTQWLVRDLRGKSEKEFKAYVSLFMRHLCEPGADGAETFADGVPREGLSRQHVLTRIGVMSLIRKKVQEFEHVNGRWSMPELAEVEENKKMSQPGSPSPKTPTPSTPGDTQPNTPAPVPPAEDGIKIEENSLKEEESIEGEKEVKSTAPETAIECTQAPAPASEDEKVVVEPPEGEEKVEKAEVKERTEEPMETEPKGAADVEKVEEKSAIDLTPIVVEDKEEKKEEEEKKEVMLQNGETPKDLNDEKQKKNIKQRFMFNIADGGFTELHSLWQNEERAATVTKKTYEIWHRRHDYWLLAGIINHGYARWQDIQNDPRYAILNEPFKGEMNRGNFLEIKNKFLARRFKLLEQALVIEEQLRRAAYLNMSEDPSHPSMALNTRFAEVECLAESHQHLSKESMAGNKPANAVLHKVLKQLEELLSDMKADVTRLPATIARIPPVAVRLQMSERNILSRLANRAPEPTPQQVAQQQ
UniProt Q13547: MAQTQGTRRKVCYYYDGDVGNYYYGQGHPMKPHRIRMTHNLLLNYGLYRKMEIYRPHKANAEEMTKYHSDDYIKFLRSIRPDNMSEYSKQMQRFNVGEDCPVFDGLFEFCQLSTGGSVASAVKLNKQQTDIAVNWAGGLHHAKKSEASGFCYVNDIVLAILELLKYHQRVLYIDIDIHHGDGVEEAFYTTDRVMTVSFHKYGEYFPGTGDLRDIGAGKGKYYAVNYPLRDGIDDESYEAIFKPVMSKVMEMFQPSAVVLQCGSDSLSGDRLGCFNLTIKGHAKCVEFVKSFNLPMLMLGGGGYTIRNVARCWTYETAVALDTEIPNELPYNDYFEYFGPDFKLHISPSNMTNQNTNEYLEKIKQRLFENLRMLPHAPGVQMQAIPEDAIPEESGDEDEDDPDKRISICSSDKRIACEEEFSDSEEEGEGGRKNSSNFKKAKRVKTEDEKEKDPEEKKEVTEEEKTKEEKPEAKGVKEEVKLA

[2] = target: T1, Zinc Finger MYND (Myeloid, Nervy, and DEAF-1) type containing 8 (human (in lysate of the paper's cell lines, all human; line not stated)); assay: Re-ChIP; sequential chromatin immunoprecipitation of cross-linked chromatin: first antibody, elution with 0.05 M DTT at 30 °C for 1 h, 20-fold dilution, second antibody; qPCR at the MAPT IGRR site

Row | binding [1] | binding [2] | Substance
1 | binds | binds | CHD4 (from UniProt Q14839 1-1912)
2 | binds |  | HDAC1 (from UniProt Q13547 1-482)
